In patent publication US20220380455A1:
These are yes or no findings as the source states them, for the method shown. Some results given as binding are weak or reduced against the parent protein; the word gives no strength.

Target: T1, MS4A6A ECL2 peptide (human)
T1 sequence (peptide): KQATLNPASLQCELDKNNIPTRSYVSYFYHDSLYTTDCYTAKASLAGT
Test: array SPR (Carterra MX-96); Carterra SPR traces: weak signal, no KD fitted; also positive by ELISA

binding: binds
B1: 6A-6 (antibody, V domains shown)
VH: QIQLVQSGPELKKPGESVKISCKASGYTFANYGMNWVKLAPGKGLKWMGYINIYSGKSRYADDFKGRFAFSLETSASTAYLQINNLKNEDMATYFCARDNDYFDYWGQGTTLTVSS
VL: DIVLTQSPATLSVTPGDTVSLSCRASQSISDNLHWYQQKSHESPGLLIKYASQSISGIPSRFSGRGSGTDFTLSINSVDSEDFGVYFCQQSNSWPYTFGGGTKLEIK
